In US7199219B1, “Polypeptides derived from vitamin D nuclear receptor, and their uses in particular for screening vitamin D analogues” (Centre National de la Recherche Scientifique, priority 1999, dated 2007):
Results are given in words; binding and its absence hold for the method and conditions named. Some binding calls cover weakened binding; strength is not graded here.

The chains behind the UniProt entries cited, without tags or fusion partners. Residues count along the entry.
UniProt P19793, residues 223-462: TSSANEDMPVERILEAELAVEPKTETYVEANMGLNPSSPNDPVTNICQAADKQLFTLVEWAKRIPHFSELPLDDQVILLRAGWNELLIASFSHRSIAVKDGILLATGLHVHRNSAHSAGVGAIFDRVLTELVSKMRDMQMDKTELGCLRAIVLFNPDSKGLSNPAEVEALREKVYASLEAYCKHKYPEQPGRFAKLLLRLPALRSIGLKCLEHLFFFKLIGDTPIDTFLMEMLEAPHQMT

Biological target: LBD of RXRα (human) (UniProt P19793)
Assay: dimerisation; method not described

B1: hVDR (118-427 Δ165-215) (receptor)
chain: DSLRPKLSEEQQRIIAILLDAHHKTYDPTYSDFCQFRPPVRVNDGGGSVTLELSQLSMLPHLADLVSYSIQKVIGFAKMIPGFRDLTSEDQIVLLKSSAIEVIMLRSNESFTMDDMSWTCGNQDYKYRVSDVTKAGHSLELIEPLIKFQVGLKKLNLHEEEHVLLMAICIVSPDRPGVQDAALIEAIQDRLSNTLQTYIRCRHPPPGSHLLYAKMIQKLADLRSLNEEHSKQYRCLSFQPECSMKLTPLVLEVFGNEIS
Q: B1 was tested. Which binding did it give?
A: binds
